Assay [1] concerns the target 4-hydroxyphenylpyruvic acid dioxygenase (HPD), endogenous human (human (endogenous in HEK293T and LO2)) (UniProt P32754). The assay can be described thus: affinity purification with mass spectrometry; HPD immunoprecipitated from HEK293T cells; bands cut from SDS-PAGE, trypsin digest, LC-MS/MS (Orbitrap Elite), Mascot search.
Assay [2] shares this target. The assay is described as above. This is another data set of the same source.

Sequences of proteins named here, by UniProt entry; tags and fusion partners are left off.
UniProt P32754: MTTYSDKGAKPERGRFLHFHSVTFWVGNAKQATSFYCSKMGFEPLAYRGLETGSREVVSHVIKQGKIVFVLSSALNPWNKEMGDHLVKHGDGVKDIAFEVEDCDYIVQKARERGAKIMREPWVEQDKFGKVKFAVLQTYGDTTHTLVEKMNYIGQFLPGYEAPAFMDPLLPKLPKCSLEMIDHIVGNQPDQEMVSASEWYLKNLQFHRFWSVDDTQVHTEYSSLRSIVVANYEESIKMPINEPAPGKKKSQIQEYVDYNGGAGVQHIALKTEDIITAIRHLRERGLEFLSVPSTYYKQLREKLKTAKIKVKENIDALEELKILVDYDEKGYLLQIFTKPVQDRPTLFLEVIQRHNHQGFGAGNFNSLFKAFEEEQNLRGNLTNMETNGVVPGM
UniProt Q9BYT3: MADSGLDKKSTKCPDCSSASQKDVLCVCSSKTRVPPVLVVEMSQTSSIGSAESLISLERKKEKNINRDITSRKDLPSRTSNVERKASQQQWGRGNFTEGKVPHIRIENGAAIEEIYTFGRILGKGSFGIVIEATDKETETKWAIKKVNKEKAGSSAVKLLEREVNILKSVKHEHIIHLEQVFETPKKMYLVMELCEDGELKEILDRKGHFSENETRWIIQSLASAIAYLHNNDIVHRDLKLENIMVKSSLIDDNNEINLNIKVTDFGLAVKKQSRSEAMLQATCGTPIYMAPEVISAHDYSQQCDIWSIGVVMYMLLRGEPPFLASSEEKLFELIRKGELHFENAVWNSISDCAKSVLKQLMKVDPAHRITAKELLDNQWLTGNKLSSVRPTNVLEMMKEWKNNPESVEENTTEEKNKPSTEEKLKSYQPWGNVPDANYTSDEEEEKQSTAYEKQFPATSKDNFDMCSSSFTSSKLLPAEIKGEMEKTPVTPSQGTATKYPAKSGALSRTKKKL

Read-outs that look alike come from different tables or passages of the source. These are yes or no findings as the source states them, for the method shown. In cells and extracts the contact can be indirect. These calls come from enrichment with a bait or labelling near it, and not all partners need be listed.

As for “serine/threonine kinase 33 (STK33), endogenous human (from UniProt Q9BYT3 1-514)”, in assay [1], the binding entry was “binds”.

B1: tetratricopeptide repeat domain 36 (TTC36), endogenous human (protein, UniProt A6NLP5 1-189)
chain: MGTPNDQAVLQAIFNPDTPFGDIVGLDLGEEAEKEEREEDEVFPQAQLEQSKALELQGVMAAEAGDLSTALERFGQAICLLPERASAYNNRAQARRLQGDVAGALEDLERAVELSGGRGRAARQSFVQRGLLARLQGRDDDARRDFERAARLGSPFARRQLVLLNPYAALCNRMLADMMGQLRRPRDSR
On to B1, for which the binding entry in assay [2] was “binds”.

The values above are taken from paper PMC6753076.
